Laboratory results: PMC8201613
Changes are numbered by the printed parent chain. No constants are given. Whether binding was seen depends on the method and setting. Binding seen in cells or lysates may run through a third protein. Here binding means that the protein was enriched with, or labelled near, the bait; the list need not be complete. A no says only that the protein was not detected with the bait. Tags and fused reporters may be left off the sequences shown.

Amino acid sequences for entries named in this document (tags omitted). Residues count along the entry.
UniProt Q14571: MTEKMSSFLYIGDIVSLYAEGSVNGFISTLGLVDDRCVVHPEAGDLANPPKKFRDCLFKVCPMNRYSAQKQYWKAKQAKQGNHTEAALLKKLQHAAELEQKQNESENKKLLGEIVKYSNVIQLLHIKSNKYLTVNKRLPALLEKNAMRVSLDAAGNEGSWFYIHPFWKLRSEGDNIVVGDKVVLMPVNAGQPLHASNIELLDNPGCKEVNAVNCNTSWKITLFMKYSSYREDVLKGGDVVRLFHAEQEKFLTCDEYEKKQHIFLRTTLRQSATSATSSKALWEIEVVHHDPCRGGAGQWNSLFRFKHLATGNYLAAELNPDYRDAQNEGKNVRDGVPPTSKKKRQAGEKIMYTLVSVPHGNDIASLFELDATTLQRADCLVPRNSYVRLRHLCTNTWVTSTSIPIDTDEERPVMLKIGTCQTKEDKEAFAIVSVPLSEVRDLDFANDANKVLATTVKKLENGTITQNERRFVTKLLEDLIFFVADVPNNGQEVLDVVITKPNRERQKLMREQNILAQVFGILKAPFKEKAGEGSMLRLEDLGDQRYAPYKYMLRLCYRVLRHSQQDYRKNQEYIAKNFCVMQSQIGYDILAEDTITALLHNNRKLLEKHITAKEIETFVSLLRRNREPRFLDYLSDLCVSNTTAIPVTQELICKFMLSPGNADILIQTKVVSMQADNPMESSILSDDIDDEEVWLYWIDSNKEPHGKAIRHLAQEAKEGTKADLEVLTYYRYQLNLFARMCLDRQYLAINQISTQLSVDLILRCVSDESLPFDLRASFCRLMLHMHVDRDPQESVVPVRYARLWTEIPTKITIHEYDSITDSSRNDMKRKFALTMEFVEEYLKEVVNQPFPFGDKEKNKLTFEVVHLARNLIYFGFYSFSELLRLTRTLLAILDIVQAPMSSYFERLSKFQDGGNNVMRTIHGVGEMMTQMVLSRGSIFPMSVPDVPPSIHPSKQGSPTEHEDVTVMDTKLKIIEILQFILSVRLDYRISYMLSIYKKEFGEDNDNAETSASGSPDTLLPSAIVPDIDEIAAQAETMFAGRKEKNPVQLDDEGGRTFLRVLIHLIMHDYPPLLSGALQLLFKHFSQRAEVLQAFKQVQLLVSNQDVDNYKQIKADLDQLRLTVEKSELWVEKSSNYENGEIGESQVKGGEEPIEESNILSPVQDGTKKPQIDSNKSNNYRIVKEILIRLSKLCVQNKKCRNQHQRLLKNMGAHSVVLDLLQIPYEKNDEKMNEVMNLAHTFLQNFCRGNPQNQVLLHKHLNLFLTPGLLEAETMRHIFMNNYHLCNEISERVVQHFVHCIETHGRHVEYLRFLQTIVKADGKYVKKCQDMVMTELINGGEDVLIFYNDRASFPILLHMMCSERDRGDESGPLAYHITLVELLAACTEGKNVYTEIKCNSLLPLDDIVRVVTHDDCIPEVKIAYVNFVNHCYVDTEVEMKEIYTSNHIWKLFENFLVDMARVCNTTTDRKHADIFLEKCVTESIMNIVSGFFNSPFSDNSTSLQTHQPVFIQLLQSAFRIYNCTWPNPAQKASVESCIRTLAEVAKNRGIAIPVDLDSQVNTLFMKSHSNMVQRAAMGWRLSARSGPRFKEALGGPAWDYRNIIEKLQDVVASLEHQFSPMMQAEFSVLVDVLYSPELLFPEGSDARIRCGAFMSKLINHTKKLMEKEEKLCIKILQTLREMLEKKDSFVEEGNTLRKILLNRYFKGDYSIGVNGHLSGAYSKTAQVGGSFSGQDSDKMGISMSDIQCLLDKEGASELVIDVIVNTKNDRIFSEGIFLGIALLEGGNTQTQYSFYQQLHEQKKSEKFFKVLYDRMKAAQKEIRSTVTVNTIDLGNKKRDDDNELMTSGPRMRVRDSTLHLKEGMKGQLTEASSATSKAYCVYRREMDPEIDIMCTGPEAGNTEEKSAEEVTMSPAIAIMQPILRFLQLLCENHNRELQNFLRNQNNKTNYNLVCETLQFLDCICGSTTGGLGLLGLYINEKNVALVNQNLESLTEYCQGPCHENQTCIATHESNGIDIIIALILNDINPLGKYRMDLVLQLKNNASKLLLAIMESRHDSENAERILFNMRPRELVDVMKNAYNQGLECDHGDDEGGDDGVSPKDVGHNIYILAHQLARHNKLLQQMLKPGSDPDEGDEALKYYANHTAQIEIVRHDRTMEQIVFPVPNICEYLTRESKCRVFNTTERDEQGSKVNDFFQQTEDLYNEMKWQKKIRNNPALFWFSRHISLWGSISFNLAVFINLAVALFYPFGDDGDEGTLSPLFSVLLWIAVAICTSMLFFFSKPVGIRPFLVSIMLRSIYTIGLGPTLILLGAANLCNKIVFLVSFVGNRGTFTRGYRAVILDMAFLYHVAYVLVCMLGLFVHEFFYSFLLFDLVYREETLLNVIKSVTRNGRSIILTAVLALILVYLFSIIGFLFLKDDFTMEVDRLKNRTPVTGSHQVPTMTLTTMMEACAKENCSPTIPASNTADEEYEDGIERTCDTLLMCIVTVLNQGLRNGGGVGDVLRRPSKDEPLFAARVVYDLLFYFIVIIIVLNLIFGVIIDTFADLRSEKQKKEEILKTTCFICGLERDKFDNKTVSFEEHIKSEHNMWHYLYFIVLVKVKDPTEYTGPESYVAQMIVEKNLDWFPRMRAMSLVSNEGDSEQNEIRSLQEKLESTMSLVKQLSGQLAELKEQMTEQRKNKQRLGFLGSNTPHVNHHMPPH
UniProt P11172: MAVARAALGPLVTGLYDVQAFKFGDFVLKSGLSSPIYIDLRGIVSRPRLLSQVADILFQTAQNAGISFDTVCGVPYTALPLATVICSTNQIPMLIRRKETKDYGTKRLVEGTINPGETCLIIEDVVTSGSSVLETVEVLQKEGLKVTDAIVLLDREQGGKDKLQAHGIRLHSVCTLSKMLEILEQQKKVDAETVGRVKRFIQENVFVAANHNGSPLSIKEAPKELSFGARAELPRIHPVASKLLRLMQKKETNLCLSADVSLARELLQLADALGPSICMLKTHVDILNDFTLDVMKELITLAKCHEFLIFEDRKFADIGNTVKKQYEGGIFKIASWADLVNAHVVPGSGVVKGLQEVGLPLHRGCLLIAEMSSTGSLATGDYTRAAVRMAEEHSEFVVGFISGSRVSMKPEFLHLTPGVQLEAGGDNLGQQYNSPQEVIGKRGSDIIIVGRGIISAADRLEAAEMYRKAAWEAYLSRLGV
UniProt P38646, residues 47-679: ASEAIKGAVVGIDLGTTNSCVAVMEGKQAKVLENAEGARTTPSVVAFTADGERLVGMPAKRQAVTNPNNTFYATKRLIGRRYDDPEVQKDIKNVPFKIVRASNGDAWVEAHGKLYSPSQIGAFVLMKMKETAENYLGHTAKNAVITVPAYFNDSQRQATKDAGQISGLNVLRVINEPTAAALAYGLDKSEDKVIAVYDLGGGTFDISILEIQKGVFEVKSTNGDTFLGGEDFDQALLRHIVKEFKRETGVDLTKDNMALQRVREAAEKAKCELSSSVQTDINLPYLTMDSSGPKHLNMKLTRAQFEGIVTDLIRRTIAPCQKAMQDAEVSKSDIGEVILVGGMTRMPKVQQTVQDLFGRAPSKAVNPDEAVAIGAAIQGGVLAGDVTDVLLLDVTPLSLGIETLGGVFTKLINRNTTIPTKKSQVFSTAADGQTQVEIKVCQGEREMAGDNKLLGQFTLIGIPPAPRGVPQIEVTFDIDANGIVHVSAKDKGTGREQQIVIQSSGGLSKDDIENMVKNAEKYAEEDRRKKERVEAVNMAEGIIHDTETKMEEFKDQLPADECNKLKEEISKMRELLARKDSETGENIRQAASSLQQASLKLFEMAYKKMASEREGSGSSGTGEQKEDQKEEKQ
UniProt P21796: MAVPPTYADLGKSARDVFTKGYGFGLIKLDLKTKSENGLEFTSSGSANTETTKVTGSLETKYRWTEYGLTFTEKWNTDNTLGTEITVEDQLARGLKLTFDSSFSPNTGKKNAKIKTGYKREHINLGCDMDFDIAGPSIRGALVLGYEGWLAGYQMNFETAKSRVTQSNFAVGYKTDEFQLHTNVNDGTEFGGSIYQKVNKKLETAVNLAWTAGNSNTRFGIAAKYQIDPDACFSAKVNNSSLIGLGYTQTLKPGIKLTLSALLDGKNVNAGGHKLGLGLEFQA

How the values were obtained:
[1] = molecular target: T1, V5-TurboID-Bok^WT (mouse) (UniProt O35425); test: proximity labelling; TurboID fusion expressed in Bok KO HeLa cells, 50 uM biotin for 2 h, streptavidin magnetic beads, stringent washes, SDS-PAGE and mass spectrometry; 'strongly labeled' = present in multiple independent experiments and unique or 5x increased over non-transfected control
T1 sequence: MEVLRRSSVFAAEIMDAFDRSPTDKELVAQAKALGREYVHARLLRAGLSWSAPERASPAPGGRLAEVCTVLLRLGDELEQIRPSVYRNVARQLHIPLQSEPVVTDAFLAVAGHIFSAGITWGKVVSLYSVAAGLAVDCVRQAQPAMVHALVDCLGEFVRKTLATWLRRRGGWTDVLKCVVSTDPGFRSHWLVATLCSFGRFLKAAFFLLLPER

[2] = molecular target: T2, V5-TurboID-Bok^L34G (mouse) (UniProt O35425); test: as above
T2 sequence: T1 sequence with L34G

Substance	binding [1]	binding [2]
inositol 1,4,5-trisphosphate receptor type 2 (from UniProt Q14571 1-2701)	–	no binding
inositol 1,4,5-trisphosphate receptor type 3 (from UniProt Q14573 1-2671)	–	no binding
uridine monophosphate synthetase (from UniProt P11172 1-480) (enzyme)	no binding	–

Continued, values first:

binding [1]	binding [2]	Substance
no binding	–	Grp75 (from UniProt P38646 47-679)
no binding	–	Vdac1 (from UniProt P21796 1-283)
